± gives the uncertainty stated by the source. Many entries were measured with a wide error.
Test: self-splicing fitness, log relative to wild type (ln ratio); higher = more splicing; Tetrahymena group I intron in knt gene, E. coli kanamycin selection, DiMSum; sequences stand for … in CUCUCU…GGAGGGAAAAGUUAUCAGGCAUGCACCUGGUAGCUAGUCUUUAAACCAAUAGAUUGCAUCGGUUUAAAAGGCAAGACCGUCAAAUUGCGGGAAAGGGGUCAACAGCCGUUCAGUACCAAGUCUCAGGGGAAACUUUGAGAUGGCCUUGCAAAGGGUAUGGUAAUAAGCUGACGGACAUGGUCCUAACCACGCAGCCAAGUCCUAAGUCAACAGAUCUUCUGUUGAUAUGGAUGCAGUUCACAGACUAAAUGUCGGUCGGGGAAGAUGUAUUCUUCUCAUAAGAUAUAGUCGGACCUCUCCUUAAUGGGAGCUAGCGGAUGAAGUGAUGCAACACUGGAGCCGCUGGGAACUAAUUUGUAUGCGAAAGUAUAUUGAUUAGUUUUGGAGUACUCGUGGUCG
Procedure, shortened: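 Colonies from six replicate transformations of E. coli BL21(DE3) were pooled and amplicon-sequenced on an Illumina HiSeq 2500. The library placed an intron with all eight P1ex-region nucleotides randomised inside the knt kanamycin-resistance gene on pET-22b(+), and cells grew overnight at 37°C or 30°C on LB agar with or without 25 μg/mL kanamycin (plus 100 μg/mL carbenicillin, 50 μM IPTG, 0.2% rhamnose). Fitness is the DiMSum error-weighted combination of wild-type-normalised replicate fold changes, kanamycin versus none.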

Sequence | self-splicing fitness (ln) (37 °C) | self-splicing fitness (ln) (30 °C)
UCAAAGCAAUAUUACGAGCC | -3.03 ± 0.74 | –
UUGUAGCAAUAUUACGCACC | -1.16 ± 0.9 | –
CUCGAGCAAUAUUACGCCGC | – | -3.07 ± 0.68
GCAAAGCAAUAUUACGUGUA | -0.701 ± 0.074 | -0.807 ± 0.071
CAGAAGCAAUAUUACGUUCC | – | -1.85 ± 0.54
UGUAAGCAAUAUUACGUUGC | -3.08 ± 0.53 | –
UCCGAGCAAUAUUACGAUAA | -2.41 ± 0.32 | -2 ± 0.22
GUAUAGCAAUAUUACGUACC | -2.41 ± 0.54 | -3.72 ± 0.55
UGGGAGCAAUAUUACGCCCA | -1.68 ± 0.53 | –
ACUUAGCAAUAUUACGGCCU | 0.312 ± 0.11 | -0.24 ± 0.1
AAGGAGCAAUAUUACGUUAC | – | -3.11 ± 0.74
GUGGAGCAAUAUUACGCCCA | -2.48 ± 1.1 | -0.828 ± 0.82
CGACAGCAAUAUUACGUAUA | -1.54 ± 0.27 | -4.3 ± 0.47
AUACAGCAAUAUUACGAGAG | -2.1 ± 0.088 | -3.39 ± 0.14
AGAGAGCAAUAUUACGCUGG | -2.4 ± 0.32 | -3.07 ± 0.27
GUCGAGCAAUAUUACGGGAC | -2.05 ± 0.21 | -3.05 ± 0.22
GGGAAGCAAUAUUACGGACC | -2.35 ± 0.46 | -3.81 ± 0.4
AGCCAGCAAUAUUACGAGGG | -2.38 ± 0.17 | -2.58 ± 0.15
UAUGAGCAAUAUUACGUGAC | – | -3.78 ± 0.73
UCCCAGCAAUAUUACGUGGG | -2.85 ± 0.16 | -3.37 ± 0.1
UGCGAGCAAUAUUACGAAUA | -2.79 ± 0.74 | -3.67 ± 0.61
GUUGAGCAAUAUUACGCAGC | -2.64 ± 0.75 | –
AGAAAGCAAUAUUACGGAGC | -3.91 ± 0.59 | -4.74 ± 0.73
UAGUAGCAAUAUUACGGAAA | – | -1.35 ± 0.73

Sequence | self-splicing fitness (ln) (37 °C) | self-splicing fitness (ln) (30 °C)
CAAGAGCAAUAUUACGCUAG | – | -4.59 ± 0.59
CUAGAGCAAUAUUACGCGCC | -1.69 ± 1.2 | –
GUUGAGCAAUAUUACGAGGU | -3.15 ± 0.52 | –
CUUUAGCAAUAUUACGCAAU | -2.86 ± 0.55 | -4.17 ± 1.1
CGUGAGCAAUAUUACGCCAG | -0.958 ± 0.56 | -2.99 ± 0.52
CUUGAGCAAUAUUACGGCCU | -3.02 ± 0.74 | –
GUGUAGCAAUAUUACGCCAC | – | -2.67 ± 0.63
UCGUAGCAAUAUUACGCUGU | – | -2.47 ± 0.66
CGGCAGCAAUAUUACGGCGC | -2.53 ± 0.24 | -2.64 ± 0.27
GCCAAGCAAUAUUACGUCGG | -2.28 ± 0.24 | -2.95 ± 0.18
UGCGAGCAAUAUUACGUGAA | – | -4.37 ± 0.59
GUUUAGCAAUAUUACGCGAC | -2.22 ± 0.68 | –
GCCCAGCAAUAUUACGACUG | -2.44 ± 0.19 | -4.23 ± 0.22
GGUUAGCAAUAUUACGCCAG | -0.778 ± 1 | –
ACCAAGCAAUAUUACGGCCC | 0.112 ± 0.16 | -0.856 ± 0.11
CGAGAGCAAUAUUACGCGGC | – | -2.67 ± 0.62
CCGUAGCAAUAUUACGCGAA | -3.63 ± 0.73 | -2.43 ± 0.51
UGGGAGCAAUAUUACGGCAG | -1.34 ± 0.17 | -3.28 ± 0.21
GUGUAGCAAUAUUACGCACA | – | -2.84 ± 0.54
GAAAAGCAAUAUUACGCUCC | -3.37 ± 1 | -2.68 ± 0.55
CUUGAGCAAUAUUACGCGUC | -3.47 ± 1 | -4.4 ± 1
UAUCAGCAAUAUUACGAGUC | – | -4.5 ± 0.6
UACAAGCAAUAUUACGCAAC | – | -3.75 ± 0.73
UGGAAGCAAUAUUACGGGUC | – | -4.55 ± 0.51

Sequence | self-splicing fitness (ln) (37 °C) | self-splicing fitness (ln) (30 °C)
GAGUAGCAAUAUUACGCUAC | -0.778 ± 1.4 | -2.49 ± 0.66
CCGUAGCAAUAUUACGGCCA | – | -3.75 ± 0.74
GCCGAGCAAUAUUACGUUUG | -1.54 ± 0.19 | -3.75 ± 0.2
UGCUAGCAAUAUUACGUGCC | – | -0.755 ± 0.73
UCUGAGCAAUAUUACGCUGU | -1.07 ± 0.19 | -2 ± 0.23
CAAGAGCAAUAUUACGAGUA | – | -4.27 ± 1
CAUAAGCAAUAUUACGGAAA | – | -3.85 ± 0.52
CGGGAGCAAUAUUACGUCAU | -3.01 ± 0.61 | –
UUAGAGCAAUAUUACGAAAC | -1.89 ± 0.57 | –
CUUAAGCAAUAUUACGUUGU | -1.64 ± 0.15 | -3.89 ± 0.2
UGGGAGCAAUAUUACGCGUC | -0.00228 ± 0.74 | –
CAUCAGCAAUAUUACGCGAC | -2.92 ± 0.22 | -4.17 ± 0.29
CCACAGCAAUAUUACGGUCA | -3.22 ± 0.34 | -3.27 ± 0.21
CGUGAGCAAUAUUACGGCCA | -3.26 ± 1 | –
GCGGAGCAAUAUUACGCGAC | – | -2.97 ± 0.77
UAUGAGCAAUAUUACGAACU | – | -3.91 ± 0.6
AUCGAGCAAUAUUACGAACA | -1.27 ± 0.2 | -2.91 ± 0.24
CUUGAGCAAUAUUACGAAGC | -0.806 ± 0.51 | -1.84 ± 0.58
UUCCAGCAAUAUUACGGCCC | -2.99 ± 0.61 | –
UCGGAGCAAUAUUACGUCAG | – | -2.42 ± 0.63
UCGGAGCAAUAUUACGGCUA | – | -1.8 ± 0.57
UCGAAGCAAUAUUACGAACC | -2.74 ± 0.61 | -3.31 ± 1
UCGGAGCAAUAUUACGAUUA | – | -3.92 ± 0.74
GUGGAGCAAUAUUACGGAUG | -2.58 ± 0.62 | –

Copied from the results shown (4 entries):
Sequence | self-splicing fitness (ln) (37 °C) | self-splicing fitness (ln) (30 °C)
CUUAAGCAAUAUUACGUUGU | -1.64 ± 0.15 | -3.89 ± 0.2
UGGGAGCAAUAUUACGCGUC | -0.00228 ± 0.74 | –
CAUCAGCAAUAUUACGCGAC | -2.92 ± 0.22 | -4.17 ± 0.29
CCACAGCAAUAUUACGGUCA | -3.22 ± 0.34 | -3.27 ± 0.21

Full records as entered above. Values in the order: self-splicing fitness (ln) (37 °C) | self-splicing fitness (ln) (30 °C)
UUCCAGCAAUAUUACGGCCC reads -2.99 ± 0.61 | –
UCGAAGCAAUAUUACGAACC reads -2.74 ± 0.61 | -3.31 ± 1
CUUGAGCAAUAUUACGAAGC reads -0.806 ± 0.51 | -1.84 ± 0.58

(further entries)

Sequence | self-splicing fitness (ln) (37 °C) | self-splicing fitness (ln) (30 °C)
AAAUAGCAAUAUUACGAAAA | -1.47 ± 0.22 | -2.66 ± 0.35
UGGGAGCAAUAUUACGAUCU | -0.727 ± 0.77 | -2.66 ± 0.62
CCCUAGCAAUAUUACGACAC | – | -4.42 ± 0.59
GAUGAGCAAUAUUACGCCAC | -2.56 ± 0.76 | -3.54 ± 0.52
UCUCAGCAAUAUUACGUGGA | -1.05 ± 0.12 | -3.7 ± 0.29
GUGUAGCAAUAUUACGGUCC | -0.716 ± 0.25 | -1.7 ± 0.23
CGGGAGCAAUAUUACGCCGA | – | -1.56 ± 0.56
GACGAGCAAUAUUACGAGUA | -3.26 ± 0.37 | -3.81 ± 0.39
CUUUAGCAAUAUUACGUGGC | – | -4.32 ± 0.59
CUGAAGCAAUAUUACGAGCC | -2.48 ± 0.63 | –
CCUAAGCAAUAUUACGCAAG | -2.05 ± 0.5 | –
CCUCAGCAAUAUUACGGAAC | -1.54 ± 1.2 | -3.5 ± 0.52
GCGUAGCAAUAUUACGUAGC | – | -3.34 ± 1.1
CUUCAGCAAUAUUACGUCGA | -2.95 ± 0.3 | -4.35 ± 0.46
CGGGAGCAAUAUUACGAGUC | – | -4.04 ± 0.52
GUCCAGCAAUAUUACGCAGC | 0.198 ± 0.14 | -0.998 ± 0.17
AUAUAGCAAUAUUACGGAAC | -1.79 ± 0.58 | -2.89 ± 0.41
UGGGAGCAAUAUUACGGGUU | – | -3.97 ± 1
UUAUAGCAAUAUUACGGCCC | – | -2.47 ± 0.78
ACGGAGCAAUAUUACGUAGC | – | -4.6 ± 1
CUCCAGCAAUAUUACGGCAU | – | -3.64 ± 0.6
CUGAAGCAAUAUUACGAAUC | -1.88 ± 1.2 | –
AACGAGCAAUAUUACGGUCC | – | -5.22 ± 1
UGCGAGCAAUAUUACGUCAA | – | -4.58 ± 1

Sequence | self-splicing fitness (ln) (37 °C) | self-splicing fitness (ln) (30 °C)
UUUAAGCAAUAUUACGAGCU | -0.0484 ± 0.17 | -2.94 ± 0.22
GAACAGCAAUAUUACGGAGC | -1.13 ± 0.083 | -1.93 ± 0.057
CUCGAGCAAUAUUACGCUCG | -2.2 ± 1.1 | –
GUCGAGCAAUAUUACGCAUA | -1.6 ± 0.16 | -2.14 ± 0.18
UUGGAGCAAUAUUACGACAC | -2.36 ± 0.37 | -2.93 ± 0.78
CGGUAGCAAUAUUACGGAAU | – | -2.47 ± 0.63
CCCCAGCAAUAUUACGGCCU | -2.82 ± 0.47 | -3.02 ± 0.29
UGGGAGCAAUAUUACGCACC | – | -2.16 ± 0.65
GUUAAGCAAUAUUACGGACC | -0.693 ± 1.4 | -0.86 ± 1.4
UUUAAGCAAUAUUACGUAUC | – | -4.44 ± 0.59
ACGGAGCAAUAUUACGGGCA | -2.02 ± 0.5 | –
UCCAAGCAAUAUUACGCCCG | -0.954 ± 0.52 | –
CUAUAGCAAUAUUACGGACU | – | -3.05 ± 0.52
CCCUAGCAAUAUUACGCGCU | – | -3.39 ± 0.74
GCUAAGCAAUAUUACGCCAG | -1.22 ± 0.75 | -2.93 ± 1.1
AAAUAGCAAUAUUACGUAUA | -0.558 ± 0.12 | -1.63 ± 0.12
AUGCAGCAAUAUUACGUCAC | – | -3.95 ± 0.59
ACUGAGCAAUAUUACGAUCC | -0.234 ± 1 | -0.827 ± 0.63
CGAAAGCAAUAUUACGCGUC | – | -3.68 ± 0.62
GGAGAGCAAUAUUACGAGAA | -2.4 ± 0.63 | -2.67 ± 0.56

Reference: the supplement of paper PMC7877785
